# Assay results reported in US6630135B1, “Use of sustained release antibiotic compositions in ophthalmic surgical procedures” (Alcon Laboratories, Inc., priority 1993, dated 2003).
# Experiment: Ocular tissue drug concentration after topical dosing of rabbit eyes (HPLC)
# Type: in vivo, New Zealand albino rabbit
# Details: at one hour after topical administration of 0.3% in a single dose
# Method: New Zealand albino rabbit eyes were selected for evaluation of ciprofloxacin with enhanced sustained vehicle. The following formulations were tested: The route of administration was topical. The rabbits received 30 microliters of either the gel or solution formulations in both eyes. At the end of the study, the aqueous humor and cornea were collected and assayed by high performance liquid chromatography to determine the amount of drug present.
compound,measurement,value
O=C(O)c1cn(C2CC2)c2cc(N3CCNCC3)c(F)cc2c1=O [Ciprofloxacin],maximum concentration in the aqueous humor,0.69 µg/g
